From publication doi:10.1101/2023.01.27.525886 (bioRxiv, 2023) come the findings set out here.

Assay [1] concerns the target T1, Vtc3-TAPm (S. cerevisiae, UniProt Q02725 1-835).
T1 sequence: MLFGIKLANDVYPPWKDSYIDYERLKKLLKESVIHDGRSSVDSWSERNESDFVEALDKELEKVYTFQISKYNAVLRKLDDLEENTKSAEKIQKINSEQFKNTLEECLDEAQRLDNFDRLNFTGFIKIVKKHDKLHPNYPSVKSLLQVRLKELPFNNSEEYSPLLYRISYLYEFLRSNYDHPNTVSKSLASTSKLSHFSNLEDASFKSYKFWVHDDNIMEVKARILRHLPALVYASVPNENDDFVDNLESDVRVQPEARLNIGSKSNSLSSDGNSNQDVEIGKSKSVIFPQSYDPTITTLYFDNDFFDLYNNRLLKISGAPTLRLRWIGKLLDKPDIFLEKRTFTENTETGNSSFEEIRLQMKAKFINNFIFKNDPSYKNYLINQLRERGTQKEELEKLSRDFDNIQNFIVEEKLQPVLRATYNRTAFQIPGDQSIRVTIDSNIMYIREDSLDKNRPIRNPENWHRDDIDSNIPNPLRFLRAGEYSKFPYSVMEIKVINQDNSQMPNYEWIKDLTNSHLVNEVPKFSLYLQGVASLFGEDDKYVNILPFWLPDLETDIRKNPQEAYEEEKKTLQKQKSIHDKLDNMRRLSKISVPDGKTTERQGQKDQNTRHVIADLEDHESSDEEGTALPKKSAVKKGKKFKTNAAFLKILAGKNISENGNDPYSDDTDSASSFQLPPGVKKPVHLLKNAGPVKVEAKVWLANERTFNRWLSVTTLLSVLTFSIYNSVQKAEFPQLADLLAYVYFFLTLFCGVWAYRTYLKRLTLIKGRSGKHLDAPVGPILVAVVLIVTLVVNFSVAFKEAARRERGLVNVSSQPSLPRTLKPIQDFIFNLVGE
As to the kind of experiment: affinity co-purification of the endogenous complex.

In assay [2] the target is Vtc3(ΔSPX) (S. cerevisiae). As to the kind of experiment: affinity co-purification of the endogenous complex.

These are yes or no findings as the source states them, for the method shown. Binding seen in cells or lysates may run through a third protein. A result given as binding can be weak or reduced; the word gives no strength.

For the molecule “Vtc4(ΔSPX) (S. cerevisiae) (domain or fragment)”, in assay [1], the binding entry is “binds”.

B1: Vtc1 (natural protein)
chain: MSSAPLLQRTPGKKIALPTRVEPKVFFANERTFLSWLNFTVMLGGLGVGLLNFGDKIGRVSAGLFTFVAMGTMIYALVTYHWRAAAIRRRGSGPYDDRLGPTLLCFFLLVAVIINFILRLKYNDANTKL
In the case of B1, the binding result in assay [2] is “binds”.
